Some results were stated once for a whole list of compounds, not compound by compound. Some compounds share one range, which may span the group rather than tell each member.
Biological target: T1, α-synuclein (Homo sapiens, UniProt P37840)
T1 construct: purchased rPeptide
Test: α-synuclein fibrillation ThT assay
Assay type: biochemical
Conditions: for decrease in ThT fluorescence of α-synuclein, HG derived peptides: 5.8 μM truncated peptide; for decrease in α-synuclein fibrillation, HG derived peptides: 29 μM truncated peptide
Method: The effect of the five αB crystallin peptides, ST, DR, HG, LT, and ER on as synuclein fibrillation was measured using the ThT fluorescence assay (FIG. 28). The formation and inhibition of α-synuclein fibrils was qualitatively verified by fluorescence and bright-field microscopy. The concentration of the peptides was varied relative to α-synuclein to establish a concentration curve. In addition, the effect of a control neuropeptide (AT1) with no α-synuclein fibril inhibition activity was measured and compared to the effect of the αB crystallin peptides on α-synuclein fibrillation. The ThT fluorescence of 46 μM α-synuclein alone incubated at 37° C. for 96 hrs, increased from ˜9,500 to ˜16,000 RFU. Addition of 9.2 μM αB crystallin peptides ST, DR, HG, LT, and ER decreased the ThT fluorescence of α-synuclein by 32-100%. When the concentration of the αB crystallin peptides was increased to 46 μM, the ThT fluorescence of α-synuclein decreased with the αB crystallin peptides, DR, HG, LT, and ER, while the ThT fluorescence increased with the ST peptide. […] The negative control peptide AT1 had no effect on α-synuclein fibrillation even at a concentration as high as 460 μM. All five αB crystallin peptides inhibited α-synuclein fibrillation at sub-stoichometric and stoichometric concentrations (9.2 μM and 46 μM).
The Thioflavin T (ThT) fluorescence of 46 μM α-synuclein in the presence of varying concentrations of αB crystallin peptides and controls was measured. […] When the concentration of the peptides was increased to […] (1:1::peptide:α-synuclein), the αB crystallin peptides DR, HG, LT and ER decreased the ThT fluorescence by 51-100%, while the ST peptide had no effect on ThT fluorescence. When the concentration of the peptides was increased further to […] (10:1::peptide:α-synuclein), the five αB crystallin peptides decreased the ThT fluorescence by 40-100%. […] The formation and inhibition of β2-microglobulin fibrils was verified microscopically.
α-synuclein fibrillation ThT assays were performed as described previously. Zhu et al., J Biol Chem 279:26846-57, 2004; Dedmon et al., J Biol Chem 280:14733-40, 2005. Peptides were dissolved to 2 mM in 0.25% DMSO and diluted accordingly, while α-synuclein was dissolved in 20 mM Tris-Cl, 100 mM NaCl, pH 7.4. For the 5:1::peptide: α-synuclein assay, 5 μL of 700 μM peptide or APS was mixed with 5 μL of 140 μM α-synuclein, 17 μt of 20 mM Tris-Cl, 100 mM NaCl, pH 7.4 and 3 μL of 1 mM ThT. For the 1:1::peptide:α-synuclein assay, 5 μL of 140 μM peptide was mixed with 5 μL of 140 μM α-synuclein, 17 μl of 20 mM Tris-Cl, 100 mM NaCl, pH 7.4 and 3 μL of 1 mM ThT. For the 1:5::peptide:α-synuclein assay, 5 μL of 28 μM peptide was mixed with 5 μL of 140 μM α-synuclein, and […] of 20 mM Tris-Cl, 100 mM NaCl, pH 7.4 and 3/L of 1 mM ThT. ThT fluorescence was measured using a Perkin Elmer Victor^3 V plate reader. Assays were performed in 384-well fluorescence plates in duplicates or triplicates. Samples were incubated at 37° C. for a total of 96 hours. ThT fluorescence was measured at 0, 24, 48, and 96 hours. The effect of the peptides and APS was calculated as percentage fibril formation relative to α-synuclein alone (100%) at the end of 96 hours.

[1] = 9.2 μM, 46 μM α-synuclein, 37° C., 96 hrs
[2] = 16 μM (1:1::peptide:α-synuclein) as printed

Substance | decrease in ThT fluorescence of α-synuclein [1] | decrease in ThT fluorescence of α-synuclein [2] | decrease in ThT fluorescence of α-synuclein, HG derived peptides | also measured
ERTIPITRE | 32-100% | 51-100% | – | –
HGKH | – | – | – | decrease in α-synuclein fibrillation, HG derived peptides: 67-93%
HGKHEERQ [Peptide 51] | – | – | – | decrease in α-synuclein fibrillation, HG derived peptides: 67-93%
HGKHEERQDE | 32-100% | 51-100% | – | –
KHEERQ | – | – | 28-65% | –
RQDE | – | – | 28-65% | –
STSLSPFYLRPPSFLRAP | 32-100% | – | – | –

The next lines start with results.

decrease in ThT fluorescence of α-synuclein [1] | decrease in ThT fluorescence of α-synuclein [2] | decrease in ThT fluorescence of α-synuclein, HG derived peptides | Substance | also measured
32-100% | 51-100% | – | DRFSVNLDVKHFS | –
– | – | 28-65% | EERQ | –
– | – | 28-65% | HGKHEE | –
– | – | 28-65% | KHEE | –
32-100% | 51-100% | – | LTITSSLSSDGV | –

From patent publication US20070185028A1, “Compositions and methods for treatment of protein misfolding and protein aggregation diseases” (priority 2004, published 2007)
